# Experimental data from the supplement of paper PMC12819154, “High-throughput peptide-centric local stability assay extends protein–ligand identification to membrane proteins, tissues and bacteria” (Nature Structural & Molecular Biology, 2025).
# Amino acid sequences for entries named in this document (tags omitted). A change or cut given only in a name is not applied to a line headed by its entry.
# UniProt P32456: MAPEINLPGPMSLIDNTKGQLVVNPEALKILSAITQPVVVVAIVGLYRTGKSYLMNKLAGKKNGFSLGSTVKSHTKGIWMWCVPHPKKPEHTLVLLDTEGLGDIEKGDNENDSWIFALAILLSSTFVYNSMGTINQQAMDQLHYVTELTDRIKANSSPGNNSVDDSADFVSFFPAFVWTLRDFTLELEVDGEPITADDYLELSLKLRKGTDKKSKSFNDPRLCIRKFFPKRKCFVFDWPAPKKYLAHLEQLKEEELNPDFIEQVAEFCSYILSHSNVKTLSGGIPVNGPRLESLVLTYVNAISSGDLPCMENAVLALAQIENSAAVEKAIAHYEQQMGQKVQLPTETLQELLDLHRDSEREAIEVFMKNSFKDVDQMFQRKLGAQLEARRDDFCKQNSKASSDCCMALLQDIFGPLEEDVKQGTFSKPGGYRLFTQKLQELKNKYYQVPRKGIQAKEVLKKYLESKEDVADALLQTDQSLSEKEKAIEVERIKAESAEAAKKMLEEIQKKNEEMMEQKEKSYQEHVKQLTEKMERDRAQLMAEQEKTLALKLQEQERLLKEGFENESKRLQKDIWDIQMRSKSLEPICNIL
# UniProt P46020: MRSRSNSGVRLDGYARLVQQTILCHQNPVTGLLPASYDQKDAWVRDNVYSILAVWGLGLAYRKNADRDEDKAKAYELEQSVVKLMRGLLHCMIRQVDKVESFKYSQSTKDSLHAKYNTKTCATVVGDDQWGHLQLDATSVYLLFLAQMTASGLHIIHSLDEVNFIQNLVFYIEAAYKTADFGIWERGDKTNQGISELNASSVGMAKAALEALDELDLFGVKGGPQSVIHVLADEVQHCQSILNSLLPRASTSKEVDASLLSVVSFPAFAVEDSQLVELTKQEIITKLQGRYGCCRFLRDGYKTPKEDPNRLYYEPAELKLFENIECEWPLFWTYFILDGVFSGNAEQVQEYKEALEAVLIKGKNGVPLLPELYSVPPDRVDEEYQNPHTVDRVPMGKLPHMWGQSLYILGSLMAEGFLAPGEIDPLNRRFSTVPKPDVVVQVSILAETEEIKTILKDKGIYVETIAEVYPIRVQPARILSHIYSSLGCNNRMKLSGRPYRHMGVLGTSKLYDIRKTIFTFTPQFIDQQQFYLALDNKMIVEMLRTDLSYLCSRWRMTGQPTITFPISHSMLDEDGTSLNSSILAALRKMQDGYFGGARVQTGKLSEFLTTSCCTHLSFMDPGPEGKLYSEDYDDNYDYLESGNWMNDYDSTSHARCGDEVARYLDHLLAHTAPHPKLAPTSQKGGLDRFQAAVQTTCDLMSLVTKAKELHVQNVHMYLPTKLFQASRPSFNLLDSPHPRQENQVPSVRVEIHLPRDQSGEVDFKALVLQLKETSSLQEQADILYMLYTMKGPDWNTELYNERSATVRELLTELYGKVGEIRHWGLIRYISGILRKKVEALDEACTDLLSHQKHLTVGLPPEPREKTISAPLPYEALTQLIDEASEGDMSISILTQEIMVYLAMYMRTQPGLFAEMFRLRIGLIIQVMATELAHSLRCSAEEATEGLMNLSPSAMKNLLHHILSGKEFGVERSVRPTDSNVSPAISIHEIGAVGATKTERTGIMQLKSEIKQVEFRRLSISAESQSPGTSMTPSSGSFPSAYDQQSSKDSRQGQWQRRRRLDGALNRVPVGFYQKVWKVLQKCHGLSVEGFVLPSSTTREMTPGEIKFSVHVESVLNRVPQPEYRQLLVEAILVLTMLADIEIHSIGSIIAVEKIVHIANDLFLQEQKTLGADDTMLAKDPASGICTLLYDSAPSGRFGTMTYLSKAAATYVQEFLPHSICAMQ
# UniProt P35658: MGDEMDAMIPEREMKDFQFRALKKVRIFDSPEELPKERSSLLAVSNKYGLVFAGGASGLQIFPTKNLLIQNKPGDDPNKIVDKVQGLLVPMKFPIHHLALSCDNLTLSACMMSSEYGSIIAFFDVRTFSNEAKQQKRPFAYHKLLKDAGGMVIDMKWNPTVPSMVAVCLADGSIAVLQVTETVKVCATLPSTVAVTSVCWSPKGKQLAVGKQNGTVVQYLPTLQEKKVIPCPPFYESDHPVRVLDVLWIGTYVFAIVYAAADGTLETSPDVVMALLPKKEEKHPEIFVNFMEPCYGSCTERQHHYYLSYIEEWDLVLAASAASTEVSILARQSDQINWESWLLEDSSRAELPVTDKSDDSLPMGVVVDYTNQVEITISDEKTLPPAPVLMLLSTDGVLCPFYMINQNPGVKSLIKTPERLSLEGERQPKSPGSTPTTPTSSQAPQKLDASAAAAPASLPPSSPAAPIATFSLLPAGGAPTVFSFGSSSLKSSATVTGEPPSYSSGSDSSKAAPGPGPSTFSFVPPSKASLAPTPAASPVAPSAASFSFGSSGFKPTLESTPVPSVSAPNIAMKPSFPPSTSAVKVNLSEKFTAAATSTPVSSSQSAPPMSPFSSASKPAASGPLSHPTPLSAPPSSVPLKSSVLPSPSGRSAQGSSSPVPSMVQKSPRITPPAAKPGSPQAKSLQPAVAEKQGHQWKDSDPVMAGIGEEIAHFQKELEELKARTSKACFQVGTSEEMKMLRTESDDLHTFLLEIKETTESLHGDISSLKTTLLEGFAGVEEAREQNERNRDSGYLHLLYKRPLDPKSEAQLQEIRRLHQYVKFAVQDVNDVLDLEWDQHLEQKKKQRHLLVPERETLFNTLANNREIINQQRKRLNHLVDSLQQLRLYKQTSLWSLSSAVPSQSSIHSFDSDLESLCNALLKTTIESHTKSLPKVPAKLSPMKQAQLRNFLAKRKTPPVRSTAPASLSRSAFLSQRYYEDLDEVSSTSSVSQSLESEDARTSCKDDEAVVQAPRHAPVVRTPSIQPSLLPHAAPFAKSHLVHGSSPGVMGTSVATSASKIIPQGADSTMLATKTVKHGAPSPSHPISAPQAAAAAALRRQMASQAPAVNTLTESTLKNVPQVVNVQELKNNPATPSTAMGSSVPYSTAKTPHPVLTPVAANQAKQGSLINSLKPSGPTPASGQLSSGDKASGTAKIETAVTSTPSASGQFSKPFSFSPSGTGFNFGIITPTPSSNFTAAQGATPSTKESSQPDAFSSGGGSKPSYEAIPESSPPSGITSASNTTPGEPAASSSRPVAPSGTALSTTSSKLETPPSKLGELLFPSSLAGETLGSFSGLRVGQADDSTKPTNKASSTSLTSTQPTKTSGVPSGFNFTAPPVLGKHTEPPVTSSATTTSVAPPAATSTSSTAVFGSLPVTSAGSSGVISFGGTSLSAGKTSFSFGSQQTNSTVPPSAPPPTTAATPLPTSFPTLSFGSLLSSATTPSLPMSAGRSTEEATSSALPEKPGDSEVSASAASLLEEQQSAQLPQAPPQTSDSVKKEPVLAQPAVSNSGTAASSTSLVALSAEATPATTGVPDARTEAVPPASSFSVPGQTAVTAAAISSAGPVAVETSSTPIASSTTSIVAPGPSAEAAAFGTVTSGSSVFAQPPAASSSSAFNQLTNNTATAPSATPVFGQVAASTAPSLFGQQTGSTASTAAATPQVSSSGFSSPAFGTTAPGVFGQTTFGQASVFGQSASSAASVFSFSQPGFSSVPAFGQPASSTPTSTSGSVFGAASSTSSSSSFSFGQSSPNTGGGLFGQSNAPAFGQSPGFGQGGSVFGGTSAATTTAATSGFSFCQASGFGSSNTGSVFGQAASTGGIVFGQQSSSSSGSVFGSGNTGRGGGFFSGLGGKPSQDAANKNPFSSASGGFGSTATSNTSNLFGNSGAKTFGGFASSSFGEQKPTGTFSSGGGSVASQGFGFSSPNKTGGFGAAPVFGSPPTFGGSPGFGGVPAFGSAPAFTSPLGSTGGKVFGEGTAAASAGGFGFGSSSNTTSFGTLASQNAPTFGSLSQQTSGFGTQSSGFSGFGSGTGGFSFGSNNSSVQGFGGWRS
# UniProt P32019: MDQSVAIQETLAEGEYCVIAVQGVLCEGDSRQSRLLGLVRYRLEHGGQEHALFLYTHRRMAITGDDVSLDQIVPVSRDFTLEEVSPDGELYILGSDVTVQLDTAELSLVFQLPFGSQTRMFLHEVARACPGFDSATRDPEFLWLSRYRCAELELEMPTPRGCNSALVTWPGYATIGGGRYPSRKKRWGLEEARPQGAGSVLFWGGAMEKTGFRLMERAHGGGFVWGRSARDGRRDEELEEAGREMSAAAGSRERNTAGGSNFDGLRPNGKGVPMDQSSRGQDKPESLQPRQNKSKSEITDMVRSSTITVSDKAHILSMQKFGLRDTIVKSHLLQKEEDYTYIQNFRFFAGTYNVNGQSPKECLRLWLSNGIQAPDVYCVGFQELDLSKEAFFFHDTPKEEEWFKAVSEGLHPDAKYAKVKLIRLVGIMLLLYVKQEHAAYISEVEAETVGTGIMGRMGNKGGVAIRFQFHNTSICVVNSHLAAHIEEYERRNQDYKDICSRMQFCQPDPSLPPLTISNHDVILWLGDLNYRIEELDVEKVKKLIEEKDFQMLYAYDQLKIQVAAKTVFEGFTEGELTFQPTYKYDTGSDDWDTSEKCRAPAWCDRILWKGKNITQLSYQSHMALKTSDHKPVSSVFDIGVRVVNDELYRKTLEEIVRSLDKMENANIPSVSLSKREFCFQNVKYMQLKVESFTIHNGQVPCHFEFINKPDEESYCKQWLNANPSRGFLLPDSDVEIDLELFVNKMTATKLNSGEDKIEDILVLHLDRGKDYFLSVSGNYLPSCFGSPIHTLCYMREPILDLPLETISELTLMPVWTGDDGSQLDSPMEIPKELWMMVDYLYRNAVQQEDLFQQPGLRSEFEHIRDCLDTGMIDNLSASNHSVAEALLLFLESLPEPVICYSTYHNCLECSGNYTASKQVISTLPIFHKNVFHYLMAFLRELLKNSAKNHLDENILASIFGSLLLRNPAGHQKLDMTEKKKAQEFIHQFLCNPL
# UniProt P30086: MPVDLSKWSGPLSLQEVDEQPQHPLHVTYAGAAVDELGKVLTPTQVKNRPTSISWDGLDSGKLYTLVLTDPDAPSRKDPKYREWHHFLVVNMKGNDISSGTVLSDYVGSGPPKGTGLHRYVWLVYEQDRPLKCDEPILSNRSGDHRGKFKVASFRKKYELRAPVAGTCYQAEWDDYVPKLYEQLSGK
# UniProt P35222, whole entry: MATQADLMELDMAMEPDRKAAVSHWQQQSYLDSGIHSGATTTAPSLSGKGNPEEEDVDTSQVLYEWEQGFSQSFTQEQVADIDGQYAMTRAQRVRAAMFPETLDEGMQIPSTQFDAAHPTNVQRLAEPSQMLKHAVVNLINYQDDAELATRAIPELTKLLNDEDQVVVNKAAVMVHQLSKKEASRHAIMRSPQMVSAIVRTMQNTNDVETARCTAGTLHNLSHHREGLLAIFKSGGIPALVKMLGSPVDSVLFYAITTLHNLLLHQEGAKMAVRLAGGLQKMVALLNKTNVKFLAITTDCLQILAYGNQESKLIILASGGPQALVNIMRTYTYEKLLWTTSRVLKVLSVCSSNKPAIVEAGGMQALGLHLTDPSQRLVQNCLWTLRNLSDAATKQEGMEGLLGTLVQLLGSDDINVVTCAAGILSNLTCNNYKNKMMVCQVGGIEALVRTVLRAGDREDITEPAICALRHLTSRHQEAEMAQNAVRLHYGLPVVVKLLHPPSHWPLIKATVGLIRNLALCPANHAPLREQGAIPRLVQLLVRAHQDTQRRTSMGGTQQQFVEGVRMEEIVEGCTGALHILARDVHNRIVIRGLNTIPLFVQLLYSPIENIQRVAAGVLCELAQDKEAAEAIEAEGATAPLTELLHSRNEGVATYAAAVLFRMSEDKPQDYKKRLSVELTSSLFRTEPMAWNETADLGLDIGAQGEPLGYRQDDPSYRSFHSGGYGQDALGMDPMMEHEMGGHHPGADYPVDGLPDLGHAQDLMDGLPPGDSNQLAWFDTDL
# UniProt P43357, whole entry: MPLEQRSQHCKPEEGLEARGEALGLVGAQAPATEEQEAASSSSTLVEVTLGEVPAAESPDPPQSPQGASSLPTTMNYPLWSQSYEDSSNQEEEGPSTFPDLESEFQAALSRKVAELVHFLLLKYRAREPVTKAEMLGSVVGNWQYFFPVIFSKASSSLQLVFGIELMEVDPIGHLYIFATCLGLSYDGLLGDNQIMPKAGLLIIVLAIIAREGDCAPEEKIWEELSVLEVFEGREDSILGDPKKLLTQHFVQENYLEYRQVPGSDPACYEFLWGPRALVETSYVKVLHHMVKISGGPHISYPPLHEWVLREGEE
# This is one part of the list. Most entries show no effect beyond the scatter of the controls.
# Compound: CN[C@@H]1C[C@H]2O[C@@](C)([C@@H]1OC)n1c3ccccc3c3c4c(c5c6ccccc6n2c5c31)C(=O)NC4 [staurosporine]
# Test: log2 fold change of tryptic peptide abundance, ligand vs vehicle (limited proteolysis) (log2 ratio); higher = more trypsin-susceptible (destabilized)
# Settings: ligand concentration: 20 uM; sample: K562 cleared lysate; digestion: 4 min, 22 C (HT-PELSA RT4min, Orbitrap Astral)
row,Target,log2 fold change
1,"GBP2 (peptide sequence: DIWDIQMR, peptide start residue: 573) (UniProt P32456)",-0.0492
2,"PHKA1 (peptide sequence: FGTMTYLSK, peptide start residue: 1197) (UniProt P46020)",0.316
3,"NUP214 (peptide sequence: MLRTESDDLHTFLLEIK, peptide start residue: 739) (UniProt P35658)",0.564
4,"ETV6 (peptide sequence: SPLDNMIR, peptide start residue: 203) (UniProt P41212)",-0.135
5,"INPP5B (peptide sequence: SSTITVSDK, peptide start residue: 304) (UniProt P32019)",-0.119
6,"PEBP1 (peptide sequence: LYEQLSGK, peptide start residue: 180) (UniProt P30086)",0.0451
7,"CTNNB1 (peptide sequence: LSVELTSSLFR, peptide start residue: 674) (UniProt P35222)",0.172
8,"MYH9 (peptide sequence: LKNKHEAMITDLEER, peptide start residue: 1021) (UniProt P35579)",-0.203
9,"MAGEA3 (peptide sequence: SQHCKPEEGLEAR, peptide start residue: 7) (UniProt P43357)",-0.111
10,"HNRNPH1 (peptide sequence: GLPWSCSADEVQR, peptide start residue: 17) (UniProt P31943)",-0.38

# Two entries from above, as tab-separated lines:
row	Target	log2 fold change
2	PHKA1 (peptide sequence: FGTMTYLSK, peptide start residue: 1197) (UniProt P46020)	0.316
9	MAGEA3 (peptide sequence: SQHCKPEEGLEAR, peptide start residue: 7) (UniProt P43357)	-0.111
